The text below walks through data of patent US20120035098A1.

In the experiment the target is GST-TAT fusion protein (HIV-1 TAT protein expressed as a fusion with GST) (HIV-1). Put plainly: ELISA: GST-Tat adsorbed on the plate, HPBP in solution, detected with anti-HPBP antibodies.

These are yes or no findings as the source states them, for the method shown. Binding calls can cover weak binding; strength is not graded here.

B1: Human Phosphate Binding Protein (HPBP) (protein)
chain: DINGGGATLPQKLYLTPDVLTAGFAPYIGVGSGKGKIAFLENKYNQFGTDTTKNVHWAGSDSKLTATELATYAADKEPGWGKLIQVPSVATSVAIPFRKAGANAVDLSVKELCGVFSGRIADWSGITGAGRSGPIQVVYRAESSGTTELFTRFLNAKCTTQPGTFAVTTVFANSYSLGLSPLAGAVAAIGSVGVMAADNDVTTAQGRITYISPDFAAPTLAGLDDATKVARTGKGSSSGGGAEGKSPAAANVSAAISVVPLPAAADRGDPNVWTPVFGAVTGGGVVAYPDSGYPILGFTDLIFSECYANATQTGQVRNFFTKHYGTSANDNAAIQANAFVPLPSNWKAAVRASYLTASNALSIGDSAVCGGKGRPE
Take B1: the binding result is “binds”.
